Results of single-concentration screens

By UniProt entry, the sequences of proteins in these tests, tags left out. Residues count along the entry.
UniProt P9WFT3, whole entry: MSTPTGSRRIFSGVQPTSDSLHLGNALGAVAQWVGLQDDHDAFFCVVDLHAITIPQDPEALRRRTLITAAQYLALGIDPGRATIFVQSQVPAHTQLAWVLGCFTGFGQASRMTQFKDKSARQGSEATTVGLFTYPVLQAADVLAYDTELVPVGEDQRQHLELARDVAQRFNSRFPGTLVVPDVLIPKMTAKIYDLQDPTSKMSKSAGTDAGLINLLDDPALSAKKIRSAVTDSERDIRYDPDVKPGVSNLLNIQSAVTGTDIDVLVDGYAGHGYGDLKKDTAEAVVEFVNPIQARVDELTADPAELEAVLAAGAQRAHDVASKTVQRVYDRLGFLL
UniProt I6X8D2, whole entry: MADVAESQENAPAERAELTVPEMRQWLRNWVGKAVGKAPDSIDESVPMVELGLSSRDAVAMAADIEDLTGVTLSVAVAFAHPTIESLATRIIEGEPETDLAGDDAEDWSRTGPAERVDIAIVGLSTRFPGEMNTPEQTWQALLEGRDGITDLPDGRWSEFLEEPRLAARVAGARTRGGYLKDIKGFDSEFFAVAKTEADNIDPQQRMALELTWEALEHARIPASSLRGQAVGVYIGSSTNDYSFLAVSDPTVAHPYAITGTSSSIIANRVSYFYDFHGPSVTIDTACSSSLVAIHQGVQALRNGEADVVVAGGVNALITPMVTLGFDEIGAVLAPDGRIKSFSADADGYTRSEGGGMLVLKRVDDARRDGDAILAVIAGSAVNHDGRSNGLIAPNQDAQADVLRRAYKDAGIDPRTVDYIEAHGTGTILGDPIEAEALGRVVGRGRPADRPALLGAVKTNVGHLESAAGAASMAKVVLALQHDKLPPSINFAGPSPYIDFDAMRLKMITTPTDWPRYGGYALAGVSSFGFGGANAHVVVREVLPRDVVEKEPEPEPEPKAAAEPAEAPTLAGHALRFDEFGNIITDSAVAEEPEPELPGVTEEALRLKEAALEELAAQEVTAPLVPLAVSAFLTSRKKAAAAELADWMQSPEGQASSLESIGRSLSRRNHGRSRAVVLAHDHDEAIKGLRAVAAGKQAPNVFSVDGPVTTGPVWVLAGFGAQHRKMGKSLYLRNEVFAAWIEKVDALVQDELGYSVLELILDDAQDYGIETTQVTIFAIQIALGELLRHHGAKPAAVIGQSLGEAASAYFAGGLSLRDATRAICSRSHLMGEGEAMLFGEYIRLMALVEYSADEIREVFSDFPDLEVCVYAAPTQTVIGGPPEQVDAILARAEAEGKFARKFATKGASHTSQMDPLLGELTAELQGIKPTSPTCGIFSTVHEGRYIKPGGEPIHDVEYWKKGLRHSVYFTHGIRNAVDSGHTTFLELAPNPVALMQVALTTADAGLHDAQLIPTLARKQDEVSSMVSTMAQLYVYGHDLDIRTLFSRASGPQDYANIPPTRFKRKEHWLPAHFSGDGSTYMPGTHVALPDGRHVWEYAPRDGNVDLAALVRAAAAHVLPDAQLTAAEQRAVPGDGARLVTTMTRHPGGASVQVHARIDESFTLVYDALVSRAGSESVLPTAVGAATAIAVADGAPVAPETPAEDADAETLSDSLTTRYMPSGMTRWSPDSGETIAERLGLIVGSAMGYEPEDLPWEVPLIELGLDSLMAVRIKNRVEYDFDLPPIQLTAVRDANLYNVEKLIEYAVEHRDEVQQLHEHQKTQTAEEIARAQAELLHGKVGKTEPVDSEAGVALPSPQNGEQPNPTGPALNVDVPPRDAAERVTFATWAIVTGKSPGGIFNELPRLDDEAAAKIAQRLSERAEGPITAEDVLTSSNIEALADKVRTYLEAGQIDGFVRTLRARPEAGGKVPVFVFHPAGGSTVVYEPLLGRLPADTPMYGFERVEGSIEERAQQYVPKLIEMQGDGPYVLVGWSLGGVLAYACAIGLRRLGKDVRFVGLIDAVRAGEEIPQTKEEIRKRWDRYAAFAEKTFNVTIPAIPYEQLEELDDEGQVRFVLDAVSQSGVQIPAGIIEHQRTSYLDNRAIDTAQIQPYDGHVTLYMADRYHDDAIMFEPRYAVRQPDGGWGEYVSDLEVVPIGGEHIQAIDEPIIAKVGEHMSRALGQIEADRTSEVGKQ
UniProt Q4DA54, 1-478: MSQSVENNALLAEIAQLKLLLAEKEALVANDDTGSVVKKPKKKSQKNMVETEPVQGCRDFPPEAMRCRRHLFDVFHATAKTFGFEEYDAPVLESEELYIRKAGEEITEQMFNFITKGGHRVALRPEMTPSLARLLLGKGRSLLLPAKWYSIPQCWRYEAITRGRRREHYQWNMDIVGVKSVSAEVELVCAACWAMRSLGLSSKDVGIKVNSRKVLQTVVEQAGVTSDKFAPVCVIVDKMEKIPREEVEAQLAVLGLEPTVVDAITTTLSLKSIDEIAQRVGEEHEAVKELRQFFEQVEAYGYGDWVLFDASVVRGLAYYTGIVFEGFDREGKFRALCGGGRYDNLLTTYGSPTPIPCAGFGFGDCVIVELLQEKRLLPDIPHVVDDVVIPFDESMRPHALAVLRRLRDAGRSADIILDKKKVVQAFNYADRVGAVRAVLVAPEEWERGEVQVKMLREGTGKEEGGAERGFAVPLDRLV

Measurements from “University of Dundee, Small-Polar-MMV Screening Library” (2021), ChEMBL document CHEMBL3988442.

A: 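Tryptophan-tRNA ligase, Mycobacterium tuberculosis (UniProt P9WFT3). Enzyme assay of tryptophanyl-tRNA synthetase; the read-out is not stated. Tested at 10 µM. Direction is not recorded; retested compounds ran higher, which suggests that high means inhibition. About 65,000 compounds were tested under these conditions; 0.098% (about 64) showed 50% or more at least once.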
B: 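Cell assay of Leishmania donovani living inside macrophages; the read-out is not stated. Tested at 30 µM. Higher reads as stronger inhibition (inferred: compounds with an IC50 in retests scored well above the rest). About 69,000 compounds were tested under these conditions; 1.5% (about 1,000) showed 50% or more at least once.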
C: 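Polyketide synthase Pks13, Mycobacterium tuberculosis (UniProt I6X8D2). Enzyme assay of the thioesterase domain of polyketide synthase 13; the read-out is not stated. Compounds at 30 µM. Higher reads as stronger inhibition (inferred from which compounds were picked for retests). Of about 67,000 compounds tested this way, about 300 (0.46%) reached 50% or more in at least one test.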
D: 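Enzyme assay of histidyl-tRNA synthetase; the read-out is not stated. Target: Histidine-tRNA ligase, Trypanosoma cruzi CL Brener (UniProt Q4DA54). Tested at 30 µM. Higher reads as stronger inhibition (inferred: compounds with an IC50 in retests scored well above the rest). Size under these conditions: about 69,000 compounds, about 31 of them at 50% or above in at least one test.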

Each number is a percent effect as filed.
The controls that fix the scale are not given in the record; negative values are as filed.
The compounds are a random part of those screened.
Two or more numbers in one place are separate tests of the same structure; such repeats can differ widely.
A dash means the value is not listed here; it may have been measured.

Compound,A,B,C,D
O=C(c1cccc(S(=O)(=O)NCCc2nccs2)c1)N1CCOCC1,-0.5072,-1.255,-12.42,2.513
COC(=O)C1CN(Cc2nc(-c3ccccc3)cs2)C[C@@H](C)O1 (some centres undefined),-3.609,16.76,-18.18,5
CCCS(=O)(=O)N1CCC2(CCC(=O)N(CCc3ccncc3)C2)CC1,-2.144,16.2,-0.5849,12.05
CC(=O)N1CCC(c2cc(Nc3ncccn3)nc(C)n2)C1 (centres undefined),-,9.475,-15.79,3.745
CCOc1cc(Cl)c(CN2CCC3(CCCNC3=O)C2)cc1OC (centres undefined),-4.072,-12.84,-5.356,3.483
CC(=O)N1CCCN(C(=O)NCc2cc[nH]n2)CC1,-1.462,-19.21,-23.94,-1.515
O=c1oc(-c2ccc(F)cc2)nn1CN1CCCCC1,0.5842,11.98,-5.775,2.299
CCC(=O)N1CCN(C(=O)c2ccc(COC)o2)[C@H]2CS(=O)(=O)C[C@H]21,-7.834,-,-37.64,11.41
CC(NC(=O)N1CCNC(=O)CC1)c1c(F)cccc1Cl (centres undefined),-1.876,18.37,-10.97,6.186
COc1ccc(-c2nnc([C@H]3CCN(CC(C)(C)C)C3)o2)cc1,0.07588,-6.176,-3.781,3.261
c1cc(CNc2cnc(C3CCCN3)cn2)ccn1 (centres undefined),-4.274,-,-,8.857
Cc1nc(CN2CCN(CC(O)CN3CCOCC3)CC2)oc1C (centres undefined),8.896,-12.95,-2.435,0.5525
O=C(Nc1ccccn1)NC(CCCO)c1ccccc1 (centres undefined),-0.4454,9.535,-13.67,6.25
CC(C)n1[nH]c(=O)c2c1NC(=O)CC2c1cccc(OC(F)F)c1 (centres undefined),-0.4177,-19.61,4.424,9.091
CN1CCOC(C(=O)Nc2nc(-c3ccccc3F)n[nH]2)C1 (centres undefined),-2.468,13.64,-29.53,3.448
CCc1nnsc1C(=O)NC1CCN(c2ccccn2)CC1,0.5029,-16.49,-14.1,-5.085
N#Cc1ccc(CN2CCCCC2Cn2cccn2)cc1 (centres undefined),14.94,-10.44,-12,4.094
CCc1ncc(CN[C@@H]2CCCN(C(C)=O)[C@H]2c2ccc(C)s2)cn1.Cl,-,12.48,-,-
CC(C)NC(=O)[C@@H]1C[C@@H](N)CN1C(=O)CCSCc1ccc(F)cc1,1.26,26.27,-12.7,11.11
CC(NC(=O)Cc1cccs1)c1nnc2n1CCCCC2 (centres undefined),-2.624,-14.46,-7.201,-1.916
Cc1ccc(C(=O)N2CCC3(CCCN(c4ncc(F)cn4)C3)C2)cn1 (centres undefined),-,-,-11.9,4.233
Cc1cc(CN(CCCO)c2ccccc2)on1,-0.552,14.06,-4.307,4.39
[H][C@@]12CCN(C(=O)c3sccc3S(N)(=O)=O)C[C@@]([H])(CC1)N2C,-,-4.282,-,-
COc1ccc(N2CCN(C(=O)NC(C)c3nncn3C)CC2)cc1 (centres undefined),-7.211,-4.077,-15.23,7.91
Cc1nn(C)c(C)c1C1CCCN1Cc1nc2ccccc2c(=O)[nH]1 (centres undefined),6.985,31.36,-16.71,10.54
Cc1sc2c(C3CCNCC3)nc(Nc3cccc(F)c3)n2c1C.Cl,-,-10.63,-,-
Cc1nnsc1C(=O)NCc1cccnc1N(C)Cc1ccccc1,2.279,11.61,-14.87,6.878
CNC(=O)c1cccc(C2CNCCN2C(=O)c2cccc(F)c2)c1 (centres undefined),-,-,-31.92,7.447
O=C(O)C(F)(F)F.[H][C@@]12COC[C@H](C(=O)N3CCOCC3)[C@]1([H])CN(Cc1c(C)noc1C)C2,-,-16.95,-,-
CC(=O)c1cccc(NC(=O)Cn2cnc(-c3ccccc3)cc2=O)c1,0.3799,1.603 and 8.389,-32.76,-1.031
Cl.O=C(Nc1nc2c(s1)CNCC2)C1CC1,-,25.12,-,-
CS(=O)(=O)c1cc(NC(=O)COc2ccccc2F)cc(C(=O)O)c1,-2.824,12.1,-25.72,9.392
O=C(NCCC1CN(Cc2c[nH]cn2)CCO1)Nc1ccccc1 (centres undefined),2.099,1.843,-14.34,-2.381
CCOc1ccc(NCc2cnc(N3CCN(C)CC3)nc2)cn1,-3.725,21.28,-18.11,5.263
Cn1cc(CN2CCCN(C(=O)c3ccc4c(c3)COC4)CC2)cn1,1.852,27.74,-10.25,3.788
CN1C(=O)COc2ccc(NC(=O)CCc3nc4cccnc4[nH]3)cc21,-3.317,53.55,-19.41,1.554
O=C(CN(CC(O)c1ccc(F)cc1)C1CC1)Nc1cccnc1 (centres undefined),-0.2571,-35.7,20.69,3.067
[H][C@]12CC[C@]([H])(CN(C(=O)C3CCC3)C1)N(Cc1cnn(CC)c1)C2,-,5.789,-,-
COc1ccc(CN2C[C@@H](CN(C)C)[C@@H](CO)C2)cc1OC,0.4691,51.5,-32.13,3.061
O=C(NCc1ccccn1)c1cc2n(n1)CCNC2,1.683,6.766,-8.813,5.473
CN1CCC/C1=N\S(=O)(=O)c1ccc(NC(=O)c2cccs2)cc1,-0.9538,22.65,13.17,4.943
c1ccc(CCN2CCN(c3ccc4nncn4n3)CC2)nc1,-1.039,-6.442,-2.068,5.344
Cc1noc(C)c1CNC(=O)Nc1ccc(N2CCOC(C)C2)cc1 (centres undefined),2.88,-6.028,-5.143,9.901
O=C(c1cc(C2CC2)on1)N1C[C@@H]2COC[C@]2(COc2cccnc2)C1,-,-,-68.11,8.466
O=C(NC1CCN(C2CC2)CC1)c1[nH]nc(C2CC2)c1Cl,0.9288,-7.378,-37.24,6.494
N#Cc1ccc(F)c(CNC(=O)NC(CO)Cc2ccccc2)c1 (centres undefined),-4.025,4.69,-20.04,0.5525
N[C@@H]1CCC[C@@H](Oc2ccc(F)cc2Oc2ccccc2)[C@@H]1O,12.35,15.37 and 13.48,-,5.97
CC(=O)N1[C@H](Cn2cncn2)C[C@@H]2CN(c3ncccn3)CC[C@@H]21,-0.09292,-,-15.88,4.478

5 of the entries, repeated:

O=c1oc(-c2ccc(F)cc2)nn1CN1CCCCC1 gave A: 0.5842%; B: 11.98%; C: -5.775%; D: 2.299%.
CCOc1cc(Cl)c(CN2CCC3(CCCNC3=O)C2)cc1OC (centres undefined) gave A: -4.072%; B: -12.84%; C: -5.356%; D: 3.483%.
Cc1ccc(C(=O)N2CCC3(CCCN(c4ncc(F)cn4)C3)C2)cn1 (centres undefined) gave C: -11.9%; D: 4.233%.
Cn1cc(CN2CCCN(C(=O)c3ccc4c(c3)COC4)CC2)cn1 gave A: 1.852%; B: 27.74%; C: -10.25%; D: 3.788%.
N#Cc1ccc(CN2CCCCC2Cn2cccn2)cc1 (centres undefined) gave A: 14.94%; B: -10.44%; C: -12%; D: 4.094%.